# According to patent publication US20250249056A1, “CANCER THERAPIES COMPRISING A NUCLEAR EXPORT INHIBITOR AND AN ONCOLYTIC VIRUS” (priority 2022, published 2025):
# Read-outs that look alike come from different tables or passages of the source. This continues a long series; more values of the same kind are listed elsewhere.
# Test system: Colo205 cells
# Format: cell-based, human
compound,measurement,setting,value
O=C(/C=C\n1cnc(-c2cc(C(F)(F)F)cc(C(F)(F)F)c2)n1)NNc1cnccn1 [selinexor],"Differential protein expression, selinexor-treated nucleus vs control nucleus",protein MT-ND4 (P03905),0.448
same,"Differential protein expression, selinexor-treated nucleus vs control nucleus",protein MYB (P10242),0.457
same,"Differential protein expression, selinexor-treated nucleus vs control nucleus",protein MYO15B (Q96JP2),0.468
same,"Differential protein expression, selinexor-treated nucleus vs control nucleus",protein NADSYN1 (Q6IA69),0.01
same,"Differential protein expression, selinexor-treated nucleus vs control nucleus",protein NAGA (P17050),100
same,"Differential protein expression, selinexor-treated nucleus vs control nucleus",protein NBR1 (Q14596),4.965
same,"Differential protein expression, selinexor-treated nucleus vs control nucleus",protein NDC1 (Q9BTX1),0.469
same,"Differential protein expression, selinexor-treated nucleus vs control nucleus",protein NDUFA13 (Q9P0J0),0.458
same,"Differential protein expression, selinexor-treated nucleus vs control nucleus",protein NDUFAF4 (Q9P032),0.428
same,"Differential protein expression, selinexor-treated nucleus vs control nucleus",protein NDUFB6 (O95139),0.46
same,"Differential protein expression, selinexor-treated nucleus vs control nucleus",protein NDUFB10 (O96000),0.455
same,"Differential protein expression, selinexor-treated nucleus vs control nucleus",protein NEFH (P12036),2.836
same,"Differential protein expression, selinexor-treated nucleus vs control nucleus",protein NFXL1 (Q6ZNB6),0.432
same,"Differential protein expression, selinexor-treated nucleus vs control nucleus",protein NIPSNAP1 (Q9BPW8),2.979
same,"Differential protein expression, selinexor-treated nucleus vs control nucleus",protein NIPSNAP2 (O75323),3.521
same,"Differential protein expression, selinexor-treated nucleus vs control nucleus",protein NOB1 (Q9ULX3),3.222
same,"Differential protein expression, selinexor-treated nucleus vs control nucleus",protein NUDCD2 (Q8WVJ2),0.448
same,"Differential protein expression, selinexor-treated nucleus vs control nucleus",protein ORMDL2 (Q53FV1),0.428
same,"Differential protein expression, selinexor-treated nucleus vs control nucleus",protein PAM16 (Q9Y3D7),0.467
same,"Differential protein expression, selinexor-treated nucleus vs control nucleus",protein PARL (Q9H300),0.39
same,"Differential protein expression, selinexor-treated nucleus vs control nucleus",protein PCM1 (Q15154),0.441
same,"Differential protein expression, selinexor-treated nucleus vs control nucleus",protein PDHA1 (P08559),0.363
same,"Differential protein expression, selinexor-treated nucleus vs control nucleus",protein PDHA2 (P29803),0.376
same,"Differential protein expression, selinexor-treated nucleus vs control nucleus",protein PDHB (P11177),0.34
same,"Differential protein expression, selinexor-treated nucleus vs control nucleus",protein PDHX (O00330),0.384
same,"Differential protein expression, selinexor-treated nucleus vs control nucleus",protein PEX14 (O75381),0.428
same,"Differential protein expression, selinexor-treated nucleus vs control nucleus",protein PEX19 (P40855),100
same,"Differential protein expression, selinexor-treated nucleus vs control nucleus",protein PHACTR4 (Q8IZ21),0.01
same,"Differential protein expression, selinexor-treated nucleus vs control nucleus",protein PHB1 (P35232),0.37
same,"Differential protein expression, selinexor-treated nucleus vs control nucleus",protein PHB2 (Q99623),0.39
same,"Differential protein expression, selinexor-treated nucleus vs control nucleus",protein PIGO (Q8TEQ8),0.467
same,"Differential protein expression, selinexor-treated nucleus vs control nucleus",protein PIWIL1 (Q96J94),0.362
same,"Differential protein expression, selinexor-treated nucleus vs control nucleus",protein PLK1 (P53350),0.275
same,"Differential protein expression, selinexor-treated nucleus vs control nucleus",protein POLE2 (P56282),0.412
same,"Differential protein expression, selinexor-treated nucleus vs control nucleus",protein POLE (Q07864),0.403
same,"Differential protein expression, selinexor-treated nucleus vs control nucleus",protein POLRMST (O00411),0.409
same,"Differential protein expression, selinexor-treated nucleus vs control nucleus",protein PPARG (P37231),0.432
same,"Differential protein expression, selinexor-treated nucleus vs control nucleus",protein PRC1 (O43663),0.299
same,"Differential protein expression, selinexor-treated nucleus vs control nucleus",protein PRKCI (P41743),3.735
same,"Differential protein expression, selinexor-treated nucleus vs control nucleus",protein PRSS2 (P07478),0.437
same,"Differential protein expression, selinexor-treated nucleus vs control nucleus",protein PSAT1 (Q9Y617),0.464
same,"Differential protein expression, selinexor-treated nucleus vs control nucleus",protein PTER (Q96BW5),100
same,"Differential protein expression, selinexor-treated nucleus vs control nucleus",protein PTPN12 (Q05209),100
same,"Differential protein expression, selinexor-treated nucleus vs control nucleus",protein PTPN23 (Q9H3S7),0.376
same,"Differential protein expression, selinexor-treated nucleus vs control nucleus",protein PTPRJ (Q12913),0.01
same,"Differential protein expression, selinexor-treated nucleus vs control nucleus",protein PXMP2 (Q9NR77),0.372
same,"Differential protein expression, selinexor-treated nucleus vs control nucleus",protein RAB9A (P51151),100
same,"Differential protein expression, selinexor-treated nucleus vs control nucleus",protein RACGAP1 (Q9H0H5),0.428
same,"Differential protein expression, selinexor-treated nucleus vs control nucleus",protein RBCK1 (Q9BYM8),0.334
same,"Differential protein expression, selinexor-treated nucleus vs control nucleus",protein RETREG3 (Q86VR2),0.01
same,"Differential protein expression, selinexor-treated nucleus vs control nucleus",protein RIOK2 (Q9BVS4),3.696
same,"Differential protein expression, selinexor-treated nucleus vs control nucleus",protein RNASET2 (O00584),0.01
same,"Differential protein expression, selinexor-treated nucleus vs control nucleus",protein RNF14 (Q9UBS8),0.01
same,"Differential protein expression, selinexor-treated nucleus vs control nucleus",protein RPL36AL (Q969Q0),13.627
same,"Differential protein expression, selinexor-treated nucleus vs control nucleus",protein RPS29 (P62273),0.468
same,"Differential protein expression, selinexor-treated nucleus vs control nucleus",protein RRM2 (P31350),0.34
same,"Differential protein expression, selinexor-treated nucleus vs control nucleus",protein S100A7 (P31151),2.93
same,"Differential protein expression, selinexor-treated nucleus vs control nucleus",protein SCD (O00767),0.275
same,"Differential protein expression, selinexor-treated nucleus vs control nucleus",protein SDC1 (P18827),6.105
same,"Differential protein expression, selinexor-treated nucleus vs control nucleus",protein SDHC (Q99643),0.406
same,"Differential protein expression, selinexor-treated nucleus vs control nucleus",protein SERPINB12 (Q96P63),3.163
same,"Differential protein expression, selinexor-treated nucleus vs control nucleus",protein SFT2D3 (Q58719),0.01
same,"Differential protein expression, selinexor-treated nucleus vs control nucleus",protein SFXN4 (Q6P4A7),0.32
same,"Differential protein expression, selinexor-treated nucleus vs control nucleus",protein SH3PXD2B (A1X283),100
same,"Differential protein expression, selinexor-treated nucleus vs control nucleus",protein SLC1A4 (P43007),0.289
same,"Differential protein expression, selinexor-treated nucleus vs control nucleus",protein SLC1A5 (Q15758),0.457
same,"Differential protein expression, selinexor-treated nucleus vs control nucleus",protein SLC7A1 (P30825),0.314
same,"Differential protein expression, selinexor-treated nucleus vs control nucleus",protein SLC12A2 (P55011),0.459
same,"Differential protein expression, selinexor-treated nucleus vs control nucleus",protein SLC25A1 (P53007),0.445
same,"Differential protein expression, selinexor-treated nucleus vs control nucleus",protein SLC25A33 (Q9BSK2),0.442
same,"Differential protein expression, selinexor-treated nucleus vs control nucleus",protein SLC25A46 (Q96AG3),100
same,"Differential protein expression, selinexor-treated nucleus vs control nucleus",protein SLC29A1 (Q99808),0.316
same,"Differential protein expression, selinexor-treated nucleus vs control nucleus",protein SLC30A1 (Q9Y6M5),100
same,"Differential protein expression, selinexor-treated nucleus vs control nucleus",protein SLC38A2 (Q96QD8),0.01
same,"Differential protein expression, selinexor-treated nucleus vs control nucleus",protein SLC50A1 (Q9BRV3),0.431
same,"Differential protein expression, selinexor-treated nucleus vs control nucleus",protein SPINT1 (O43278),3.797
same,"Differential protein expression, selinexor-treated nucleus vs control nucleus",protein SQSTM1 (Q13501),14.425
same,"Differential protein expression, selinexor-treated nucleus vs control nucleus",protein ST14 (Q9Y5Y6),3.067
same,"Differential protein expression, selinexor-treated nucleus vs control nucleus",protein STAM2 (O75886),0.01
same,"Differential protein expression, selinexor-treated nucleus vs control nucleus",protein STING1 (Q86WV6),0.01
same,"Differential protein expression, selinexor-treated nucleus vs control nucleus",protein SYVN1 (Q86TM6),0.01
same,"Differential protein expression, selinexor-treated nucleus vs control nucleus",protein TBC1D5 (Q92609),0.366
same,"Differential protein expression, selinexor-treated nucleus vs control nucleus",protein TBK1 (Q9UHD2),100
same,"Differential protein expression, selinexor-treated nucleus vs control nucleus",protein TCF7 (P36402),0.411
same,"Differential protein expression, selinexor-treated nucleus vs control nucleus",protein TFAP4 (Q01664),0.279
same,"Differential protein expression, selinexor-treated nucleus vs control nucleus",protein THEM6 (Q8WUY1),0.415
same,"Differential protein expression, selinexor-treated nucleus vs control nucleus",protein TIMELESS (Q9UNS1),0.2
same,"Differential protein expression, selinexor-treated nucleus vs control nucleus",protein TIMM17A (Q99595),0.454
same,"Differential protein expression, selinexor-treated nucleus vs control nucleus",protein TIMM17B (O60830),0.263
same,"Differential protein expression, selinexor-treated nucleus vs control nucleus",protein TJP3 (O95049),0.45
same,"Differential protein expression, selinexor-treated nucleus vs control nucleus",protein TK1 (P04183),0.407
same,"Differential protein expression, selinexor-treated nucleus vs control nucleus",protein TMEM14A (Q9Y6G1),0.454
same,"Differential protein expression, selinexor-treated nucleus vs control nucleus",protein TMEM63A (O94886),0.449
same,"Differential protein expression, selinexor-treated nucleus vs control nucleus",protein TMEM201 (Q5SNT2),0.416
same,"Differential protein expression, selinexor-treated nucleus vs control nucleus",protein TNC (P24821),0.44
same,"Differential protein expression, selinexor-treated nucleus vs control nucleus",protein TPX2 (Q9ULW0),0.397
same,"Differential protein expression, selinexor-treated nucleus vs control nucleus",protein TSR1 (Q2NL82),4.385
same,"Differential protein expression, selinexor-treated nucleus vs control nucleus",protein TTYH3 (Q9C0H2),0.465
same,"Differential protein expression, selinexor-treated nucleus vs control nucleus",protein UBAC2 (Q8NBM4),0.457
same,"Differential protein expression, selinexor-treated nucleus vs control nucleus",protein UBE2G2 (P60604),0.425
same,"Differential protein expression, selinexor-treated nucleus vs control nucleus",protein VETFL (Q9Q8K4),100
same,"Differential protein expression, selinexor-treated nucleus vs control nucleus",protein VKORC1L1 (Q8N0U8),0.446
same,"Differential protein expression, selinexor-treated nucleus vs control nucleus",protein VTA1 (Q9NP79),0.387
same,"Differential protein expression, selinexor-treated nucleus vs control nucleus",protein YBX2 (Q9Y2T7),0.224
same,"Differential protein expression, selinexor-treated nucleus vs control nucleus",protein YBX3 (P16989),0.467
same,"Differential protein expression, selinexor-treated nucleus vs control nucleus",protein YTHDF2 (Q9Y5A9),0.415
same,"Differential protein expression, selinexor-treated nucleus vs control nucleus",protein ZFYVE26 (Q68DK2),0.083
same,"Differential protein expression, selinexor-treated nucleus vs control nucleus",protein m003.2L (Q77P93),100
same,"Differential protein expression, selinexor-treated nucleus vs control nucleus",protein m013L (Q9Q8S8),100
same,"Differential protein expression, selinexor-treated nucleus vs control nucleus",protein m026R (Q9Q8S0),3.612
same,"Differential protein expression, selinexor-treated nucleus vs control nucleus",protein m043L (Q9Q8Q3),100
same,"Differential protein expression, selinexor-treated nucleus vs control nucleus",protein m045L (Q9Q8Q1),100
same,"Differential protein expression, selinexor-treated nucleus vs control nucleus",protein m047R (B2CWF4),0.403
same,"Differential protein expression, selinexor-treated nucleus vs control nucleus",protein m054R (B2CWG1),100
same,"Differential protein expression, selinexor-treated nucleus vs control nucleus",protein m054R (K4J9W4),100
same,"Differential protein expression, selinexor-treated nucleus vs control nucleus",protein m057L (B2CWG4),0.01
same,"Differential protein expression, selinexor-treated nucleus vs control nucleus",protein m059R (E2CZV4),0.01
same,"Differential protein expression, selinexor-treated nucleus vs control nucleus",protein m061R (B2CWG8),0.01
same,"Differential protein expression, selinexor-treated nucleus vs control nucleus",protein m077L (B2CWI4),0.01
same,"Differential protein expression, selinexor-treated nucleus vs control nucleus",protein m078R (D2WN05),100
same,"Differential protein expression, selinexor-treated nucleus vs control nucleus",protein m086L (B2CWJ3),0.01
same,"Differential protein expression, selinexor-treated nucleus vs control nucleus",protein m086L (E2CZY1),0.01
same,"Differential protein expression, selinexor-treated nucleus vs control nucleus",protein m094R (Q9Q8K6),0.01
same,"Differential protein expression, selinexor-treated nucleus vs control nucleus",protein m096L (B2CWK3),100
same,"Differential protein expression, selinexor-treated nucleus vs control nucleus",protein m097R (Q9Q8K3),0.01
same,"Differential protein expression, selinexor-treated nucleus vs control nucleus",protein m122R (Q9Q8H9),100
same,"Differential protein expression, selinexor-treated nucleus vs control nucleus",protein m126R (E2CZL5),0.428
same,"Differential protein expression, selinexor-treated nucleus vs control nucleus",protein m140R (Q9Q8G2),0.425
same,"Differential protein expression, selinexor-treated nucleus vs control nucleus",protein m156R (B2CWR1),100
